Reference: PubChem BioAssay AID652272 (Drosophila RNAi Screening Center, 2013)
The deposit covers about 21,000 reagents; below is an unselected part of those with a known target gene and a result. Of all reagents, 503 (2.4%) got an active call. 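Raw plate light values, not normalised; calls rest on replicate z-scores that were not deposited; hits include reporter decreases as well as increases.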 Entries without a mark were called inactive. Reagents against one gene are numbered here. A plus sign joins genes that one reagent is predicted to hit. Reagent sequences are not shown. Not given: the amount of reagent, the time to read-out.

Purpose: 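Genome-wide knock-down search for components of Hedgehog signalling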 (primary screen)
System: Drosophila clone 8 (Cl8) cells
Knock-down reagent: long dsRNA against Drosophila genes
Detection: 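Plate reader light from a firefly reporter under a ptc promoter fragment that responds to Hedgehog, with Renilla light as transfection reference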
Scale: firefly Hh reporter signal: higher = more ptc reporter light; Renilla reference signal: higher = more Renilla control light
Hit rule: 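Hit when the z-score averaged over two replicates is under -2 or over +3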
Calls: active = hit: reporter lowered or raised; inactive = not a hit

CG1628 → firefly Hh reporter signal, replicate 1: 77491; firefly Hh reporter signal, replicate 2: 75419; Renilla reference signal, replicate 1: 2378; Renilla reference signal, replicate 2: 2013
CG10853 → firefly Hh reporter signal, replicate 1: 1.18e5; firefly Hh reporter signal, replicate 2: 67650; Renilla reference signal, replicate 1: 2886; Renilla reference signal, replicate 2: 4501
san → firefly Hh reporter signal, replicate 1: 89036; firefly Hh reporter signal, replicate 2: 64812; Renilla reference signal, replicate 1: 2076; Renilla reference signal, replicate 2: 4515
CG6788 → firefly Hh reporter signal, replicate 1: 60260; firefly Hh reporter signal, replicate 2: 1.65e5; Renilla reference signal, replicate 1: 2256; Renilla reference signal, replicate 2: 7928
CG15423 → firefly Hh reporter signal, replicate 1: 1.28e5; firefly Hh reporter signal, replicate 2: 69516; Renilla reference signal, replicate 1: 3511; Renilla reference signal, replicate 2: 5634
CG17618 (retired record) + CG45049 → firefly Hh reporter signal, replicate 1: 7.37e5; firefly Hh reporter signal, replicate 2: 1.31e5; Renilla reference signal, replicate 1: 34580; Renilla reference signal, replicate 2: 3860
robl62A → firefly Hh reporter signal, replicate 1: 77681; firefly Hh reporter signal, replicate 2: 33474; Renilla reference signal, replicate 1: 1888; Renilla reference signal, replicate 2: 2439
Fas1 → firefly Hh reporter signal, replicate 1: 70272; firefly Hh reporter signal, replicate 2: 1.07e5; Renilla reference signal, replicate 1: 1971; Renilla reference signal, replicate 2: 2810
RpL10Aa → firefly Hh reporter signal, replicate 1: 36925; firefly Hh reporter signal, replicate 2: 45633; Renilla reference signal, replicate 1: 1153; Renilla reference signal, replicate 2: 1669
CG15641 → firefly Hh reporter signal, replicate 1: 62040; firefly Hh reporter signal, replicate 2: 2.03e5; Renilla reference signal, replicate 1: 1414; Renilla reference signal, replicate 2: 7462
Lcp65Ac → firefly Hh reporter signal, replicate 1: 85992; firefly Hh reporter signal, replicate 2: 52313; Renilla reference signal, replicate 1: 8918; Renilla reference signal, replicate 2: 4544
Tango14 → firefly Hh reporter signal, replicate 1: 1.31e5; firefly Hh reporter signal, replicate 2: 96810; Renilla reference signal, replicate 1: 3115; Renilla reference signal, replicate 2: 2680
Nlg2 #1 → firefly Hh reporter signal, replicate 1: 4.82e5; firefly Hh reporter signal, replicate 2: 1.81e5; Renilla reference signal, replicate 1: 19281; Renilla reference signal, replicate 2: 6490
Nlg2 #2 → firefly Hh reporter signal, replicate 1: 1.09e5; firefly Hh reporter signal, replicate 2: 46157; Renilla reference signal, replicate 1: 2754; Renilla reference signal, replicate 2: 5564
arr → firefly Hh reporter signal, replicate 1: 87296; firefly Hh reporter signal, replicate 2: 41608; Renilla reference signal, replicate 1: 2178; Renilla reference signal, replicate 2: 3152
Ptx1 → firefly Hh reporter signal, replicate 1: 1.17e5; firefly Hh reporter signal, replicate 2: 1.36e5; Renilla reference signal, replicate 1: 4429; Renilla reference signal, replicate 2: 3452
CG11885 → firefly Hh reporter signal, replicate 1: 5.63e5; firefly Hh reporter signal, replicate 2: 68808; Renilla reference signal, replicate 1: 2908; Renilla reference signal, replicate 2: 2908
CG13386 → firefly Hh reporter signal, replicate 1: 82041; firefly Hh reporter signal, replicate 2: 50743; Renilla reference signal, replicate 1: 2080; Renilla reference signal, replicate 2: 4391
Twdlalpha → firefly Hh reporter signal, replicate 1: 63936; firefly Hh reporter signal, replicate 2: 1.83e5; Renilla reference signal, replicate 1: 1868; Renilla reference signal, replicate 2: 8737
CG11155 #1 → firefly Hh reporter signal, replicate 1: 4.76e5; firefly Hh reporter signal, replicate 2: 2.00e5; Renilla reference signal, replicate 1: 24711; Renilla reference signal, replicate 2: 4474
CG11155 #2 → firefly Hh reporter signal, replicate 1: 1.13e5; firefly Hh reporter signal, replicate 2: 84400; Renilla reference signal, replicate 1: 2433; Renilla reference signal, replicate 2: 2386

Ordered by “firefly Hh reporter signal, replicate 2” (ascending): 3 of the entries above.
Lcp65Ac → firefly Hh reporter signal, replicate 1: 85992; firefly Hh reporter signal, replicate 2: 52313; Renilla reference signal, replicate 1: 8918; Renilla reference signal, replicate 2: 4544
Tango14 → firefly Hh reporter signal, replicate 1: 1.31e5; firefly Hh reporter signal, replicate 2: 96810; Renilla reference signal, replicate 1: 3115; Renilla reference signal, replicate 2: 2680
Nlg2 #1 → firefly Hh reporter signal, replicate 1: 4.82e5; firefly Hh reporter signal, replicate 2: 1.81e5; Renilla reference signal, replicate 1: 19281; Renilla reference signal, replicate 2: 6490
